In PubChem BioAssay AID493014 (National Center for Advancing Translational Sciences (NCATS), 2011):
This is one part of the list. Further columns of the screen follow, without active or inactive calls. Compounds called inactive in the main read-out are mostly missing here. Potencies come from curve fits of mixed quality, noted in brackets.

Assay: qHTS Assay to Find Inhibitors of Chronic Active B-Cell Receptor Signaling
Conditions: ABC-DLBCL IkBa-CBG/CBR reporter, luminescence ratio (green luciferase fused to IkBa over red control in TMD8 lymphoma cells), 4 h
How it was run: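 TMD8 ABC-DLBCL cells carrying doxycycline-inducible green luciferase fused to IkappaBalpha plus unfused red luciferase were exposed to compounds (up to 46 uM) for 4 hrs at 37C. Activity came from the overlap-corrected green/red luminescence ratio.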

[1] = measured here: CBR red luminescence, cell number
[2] = measured here: IkBa-CBG green luminescence

| SMILES | AC50 [1] | AC50 [2] |
| --- | --- | --- |
| COC(=O)c1ccccc1NC(=O)Nc1cc(C)cc(C)n1 | 6.51 µM [rising, single point] |  |
| S=C(Nc1ccc2c(c1)OCO2)N1CCN(Cc2ccco2)CC1 | 0.794 µM [rising, full curve, poor fit] |  |
| Cc1ccc(-c2nc(-c3ccncc3)no2)cc1C | 0.631 µM [rising, full curve, poor fit] |  |
| CN(C)CCCn1c(NCc2ccc3c(c2)OCO3)nc2ccccc21 | 9.2 µM [falling, partial curve, poor fit] |  |
| Clc1ccc(Cc2nc(-c3cccnc3)no2)cc1 | 5.01 µM [rising, partial curve, poor fit] |  |
| O=C(CCCOc1ccc(Cl)cc1Cl)N/N=C/c1ccc(Cl)cc1 | 0.651 µM [rising, full curve] |  |
| CC1=CC(C)(C)Nc2ccc(OC(=O)C(Cc3ccccc3)N3C(=O)c4ccccc4C3=O)cc21 (centres undefined) | 8.91 µM [falling, partial curve] |  |
| CC(=O)Nc1ccccc1O | 31.6 µM [rising, single point] |  |
| CS(=O)(=O)N(CC(=O)O)c1cccc(Cl)c1 | 1.03 µM [rising, partial curve, poor fit] |  |
| Cc1ccc(OCCC(=O)OCC(=O)NCc2ccccc2)cc1 | 14.6 µM [falling, partial curve, poor fit] |  |
| CCc1ccc(CN(C(=O)c2cc3ccccc3oc2=O)C2CCS(=O)(=O)C2)cc1 (centres undefined) | 12.6 µM [falling, single point] |  |
| COC(=O)c1ccc(C)c(NC(=O)CCSc2ccc(Cl)cc2)c1 | 35.5 µM [rising, single point] |  |
| CC(C)(C)NC(=O)C(c1ccncc1)N(Cc1ccco1)C(=O)c1ccc(-c2ccccc2)[nH]1 (centres undefined) | 14.1 µM [falling, single point] |  |
| CCCCCC1C(=O)C[C@@H]2CCN3C(=O)CCC[C@H]1[C@H]23 (some centres undefined) | 14.6 µM [rising, partial curve, poor fit] |  |
| CCNC(=S)N/N=C(\C)c1ccc(Cl)s1 | 7.31 µM [rising, partial curve] | 10.3 µM [falling, partial curve] |
| Cc1cccc2cc(/C=C/C(=O)c3ccco3)c(Cl)nc12 | 14.1 µM [falling, partial curve, poor fit] |  |
| O=C(NCCCCNC(=O)c1cccnc1)c1cccnc1 | 0.13 µM [rising, full curve, poor fit] |  |
| COc1ccccc1C(=O)Oc1cc(N)n(S(=O)(=O)c2ccccc2)n1 | 8.91 µM [falling, partial curve, poor fit] | 11.2 µM [falling, partial curve, poor fit] |
| Cc1oc(-c2ccccc2)cc1C(=O)Nc1cccc(C(=O)O)c1 | 0.0651 µM [rising, full curve, poor fit] | 0.651 µM [rising, full curve, poor fit] |
| Cc1cc2ccccc2n2c(SCC(=O)NCc3cccs3)nnc12 | 18.4 µM [rising, partial curve, poor fit] |  |

A draw from above in order of length of the SMILES, largest number first.

| SMILES | AC50 [1] | AC50 [2] |
| --- | --- | --- |
| CCc1ccc(CN(C(=O)c2cc3ccccc3oc2=O)C2CCS(=O)(=O)C2)cc1 (centres undefined) | 12.6 µM [falling, single point] |  |
| CCCCCC1C(=O)C[C@@H]2CCN3C(=O)CCC[C@H]1[C@H]23 (some centres undefined) | 14.6 µM [rising, partial curve, poor fit] |  |
| CCNC(=S)N/N=C(\C)c1ccc(Cl)s1 | 7.31 µM [rising, partial curve] | 10.3 µM [falling, partial curve] |

Carrying on:

| SMILES | AC50 [1] | AC50 [2] |
| --- | --- | --- |
| Fc1ccccc1NC(=S)NCCc1cccc(Cl)c1 | 6.31 µM [rising, single point] |  |
| Cn1c(=O)c2c(nc(CN3CCN(C(c4ccccc4)c4ccccc4)CC3)n2CCCO)n(C)c1=O | 22.4 µM [falling, partial curve, poor fit] |  |
| O=C(CN1CCN(Cc2ccc(Cl)cc2)C1=O)NCc1ccc(F)cc1 | 25.1 µM [falling, partial curve, poor fit] |  |
| COc1cc(C(=O)OC(C)CN2CCCCC2)cc(OC)c1OC (centres undefined) | 10 µM [rising, partial curve] |  |
| COc1ccc(OC)c(NC(=O)CCCNC(=O)c2ccc(Cl)cc2)c1 | 2.51 µM [rising, single point] |  |
| Cc1ccc(C)c(SCC(=O)N(C)CC(=O)Nc2ccc(N3CCOCC3)cc2)c1 | 0.58 µM [rising, partial curve, poor fit] |  |
| CC(C)[C@H](NC(=O)c1ccccc1)C(=O)OCC(=O)N1CCCc2ccccc21 | 7.31 µM [rising, partial curve, poor fit] |  |
| O=C(CCc1nc(-c2ccccc2F)no1)NCCN1CCc2ccccc2C1 | 10 µM [rising, partial curve, poor fit] |  |
| Cc1[nH]n(-c2ccccc2)c(=O)c1/C=N/NC(=O)C(C)C |  | 35.5 µM [falling, single point] |
| Cc1ccc(NC(=O)c2ccc3c(c2)OCO3)cc1S(=O)(=O)N1CCOCC1 | 18.4 µM [falling, single point] |  |
| CCCSc1nc2c(cnn2-c2ccccc2)c(=O)n1N | 11.2 µM [falling, single point] |  |
| COc1cc(SC)ccc1C(=O)Nc1ccc(Cl)cn1 | 3.16 µM [falling, full curve] |  |
| OCCNCc1ccc(OCc2ccc(Cl)cc2Cl)cc1 | 35.5 µM [falling, partial curve, poor fit] |  |
| Nc1cc(C(=O)N2CCCC2)cc(C(=O)N2CCCC2)c1 | 6.51 µM [falling, partial curve, poor fit] | 6.51 µM [rising, partial curve, poor fit] |
| COCCN(CC(=O)Nc1cccc(C)c1C)C(=O)c1ccc2ccccc2n1 | 29.1 µM [rising, single point] |  |
| O=C(NNC(=S)NC1CCCCC1)c1sc2ccccc2c1Cl | 0.326 µM [falling, full curve, poor fit] |  |
| COc1ccc(C(=O)/C(C)=N/O)cc1OC | 1.46 µM [rising, partial curve, poor fit] |  |
| COc1cc(OC)cc(-c2cc3ccccc3c(=O)o2)c1 | 2.59 µM [rising, single point] |  |
| Cc1ccc(Nc2nc(C(=O)NCc3ccco3)cs2)cc1 | 11.2 µM [falling, partial curve, poor fit] |  |
| Cc1cccc(-c2noc(CCC(=O)NCc3ccccc3)n2)c1 | 10 µM [rising, partial curve, poor fit] |  |
